Experimental data as given in paper PMC7927077, “Glucose-Binding of Periplasmic Protein GltB Activates GtrS-GltR Two-Component System in Pseudomonas aeruginosa” (Microorganisms, 2021).

Molecular target: GltB (endogenous, P. aeruginosa PAO1) (P. aeruginosa PAO1 (endogenous in PAO1))
Assay: co-IP; lysate of PAO1/p-gtrS-YFP (ΔgltB/p-gtrS-YFP as negative control), cells 1 min in M8 medium with 10 mM glucose; resin with rabbit anti-GltB polyclonal antibody, overnight 4 °C; western blot

B1: yellow fluorescent protein (YFP)-tagged GtrS (GtrS-YFP) (protein, UniProt Q9HZ47 1-473)
chain: MPRSLLGRMLLLTLLAVLVAQGLSSLFWLSHLRSSQREGLLTSSRSLAYSMAASVSYFRSLPLGYRPLVLDQLRSMGGTRFFVSLNDRPLEMRALPDTPNKQAVLEIVQDVLHQRLGKEVELQVEFVSPDELRLFNGALKLDELPRSWAHYALTLEPVNPPVLVTQIRIGESEWLYIASLMPAPYVSLEPEGLQPQQVLSIVFTSLLLLLFTGLLMHWQSRPLKRLARAARDLALGSPSAALEERGASELVEVARAFNTMHERIDRYLNERGQLFSAISHDLRTPITRLRLRVELLEDERLQEKFGRDLDELELLVKGALQCVKDTDIHENVESVDLNLLLQHIAEPYLADGRVEVVGRAAEPYPGKPLALKRCIGNLLDNALKYGERARLSLEDGPEAVVLHVDDDGPGVPEQRLEQIFEPRFRLSPRGQGYGLGLGIARNIAHTHGGEVSLQNRREGGLRVSLRLPRLGLE
  binding: binds

Results are given in words; binding and its absence hold for the method and conditions named. Binding seen in cells or lysates may run through a third protein. Binding calls can cover weak binding; strength is not graded here. Tags and fused reporters may be left off the sequences shown.
